Test results published in article PMC6546274.
These are yes or no findings as the source states them, for the method shown. In cells and extracts the contact can be indirect. Some results given as binding are weak or reduced against the parent protein; the word gives no strength. For part of these data: Sequences can lack the tags named with a protein. Each block holds one binder with its values, some of them ahead of it.

Chains of the proteins cited; added tags and fusions are not shown.
UniProt P10085: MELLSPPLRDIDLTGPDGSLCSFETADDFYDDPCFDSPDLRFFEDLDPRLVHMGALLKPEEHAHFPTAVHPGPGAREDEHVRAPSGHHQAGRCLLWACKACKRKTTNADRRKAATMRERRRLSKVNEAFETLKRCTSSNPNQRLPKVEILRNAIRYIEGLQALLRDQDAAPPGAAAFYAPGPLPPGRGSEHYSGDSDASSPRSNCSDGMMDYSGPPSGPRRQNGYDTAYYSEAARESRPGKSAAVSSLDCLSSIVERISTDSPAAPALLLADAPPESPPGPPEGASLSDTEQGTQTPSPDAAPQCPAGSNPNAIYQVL

Experiments:
[1] = biological target: MyoD (MYOD1), exogenous expression construct (UniProt P10085); experiment: co-IP; HEK293 cells co-transfected with expression constructs; whole cell extracts in RIPA buffer, 150-300 ug extract, 1 ug antibody (anti-MYOG F5D or anti-MYOD1 5.8A) overnight at 4 C, protein A beads; western blot with anti-TCEA3
[2] = biological target: T1, myogenin (MYOG), exogenous expression construct (UniProt P12979); experiment: as above
T1 sequence: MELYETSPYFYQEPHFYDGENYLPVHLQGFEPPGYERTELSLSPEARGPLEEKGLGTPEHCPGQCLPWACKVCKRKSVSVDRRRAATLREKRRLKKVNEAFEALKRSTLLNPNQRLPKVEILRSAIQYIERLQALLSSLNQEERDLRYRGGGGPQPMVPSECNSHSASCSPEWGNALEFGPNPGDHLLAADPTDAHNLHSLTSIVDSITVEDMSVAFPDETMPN

[3] = biological target: T2, myogenin (MYOG), endogenous, C2C12 cells (mouse (endogenous in C2C12)) (UniProt P12979); experiment: co-IP; endogenous proteins; extracts of differentiated C2C12 cells (D4 for anti-MYOG, D2 for anti-RPB1) in RIPA buffer, 1 ug antibody overnight at 4 C, protein A beads; western blot with anti-TCEA3
T2 sequence: T1 sequence

- binding [1]: binds
- binding [2]: binds
B1: TCEA3 (exogenous, expression construct in pEF6/V5 His TOPO) (protein, UniProt P23881 1-347)
chain: MGLEEELLRIAKKLEKMVSRKKTEGALDLLKKLNSCQMSIQLLQTTRIGVAVNGVRKHCSDKEVVSLAKVLIKNWKRLLDSPRTTKGEREEREKAKKEKGLGCSDWKPEAGLSPPRKKGGGEPKTRRDSVDSRSSTTSSPKRPSLERSNSSKSKVETPTTPSSPSTPTFAPAVCLLAPCYLTGDSVRDKCVEMLSAALKAEDNFKDYGVNCDKLASEIEDHIYQELKSTDMKYRNRVRSRISNLKDPRNPGLRRNVLSGAISPELIAKMTAEEMASDELRELRNAMTQEAIREHQMAKTGGTTTDLLRCSKCKKKNCTYNQVQTRSADEPMTTFVLCNECGNRWKFC

- binding [3]: binds
B2: TCEA3 (endogenous, C2C12 cells) (protein, UniProt P23881 1-347)
chain: B1 chain
